Experimental data taken from article PMC4573519.
Results are given in words; binding and its absence hold for the method and conditions named. Some binding calls cover weakened binding; strength is not graded here.

By UniProt entry, the sequences of proteins in these tests, tags left out. Residues count along the entry.
UniProt P0A3R5, residues 43-152: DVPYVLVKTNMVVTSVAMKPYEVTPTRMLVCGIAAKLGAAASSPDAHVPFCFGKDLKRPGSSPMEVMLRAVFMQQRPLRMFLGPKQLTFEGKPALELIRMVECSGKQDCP
UniProt P04978, residues 28-226: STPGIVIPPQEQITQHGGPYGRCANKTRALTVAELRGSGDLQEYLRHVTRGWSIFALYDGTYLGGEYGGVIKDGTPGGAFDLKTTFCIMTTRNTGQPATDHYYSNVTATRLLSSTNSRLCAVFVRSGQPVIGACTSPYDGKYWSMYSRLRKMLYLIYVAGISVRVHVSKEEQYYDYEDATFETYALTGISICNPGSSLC
UniProt P04979, residues 29-227: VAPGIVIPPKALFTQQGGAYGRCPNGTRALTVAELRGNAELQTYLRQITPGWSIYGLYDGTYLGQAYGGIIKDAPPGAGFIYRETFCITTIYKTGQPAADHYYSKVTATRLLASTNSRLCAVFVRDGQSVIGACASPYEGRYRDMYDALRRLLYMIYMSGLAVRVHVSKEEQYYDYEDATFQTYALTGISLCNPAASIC

Target: Pertussis toxin subunit S4 with His-tag, recombinant (Bordetella pertussis) (UniProt P0A3R5)
Experiment: co-purification by the His-tag on one subunit

| Substance | binding |
| --- | --- |
| Pertussis toxin subunit S2, PtxB1 form, recombinant (from UniProt P04978 28-226) | binds |
| Pertussis toxin subunit S3, recombinant (from UniProt P04979 29-227) | binds |
